Results are given in words; binding and its absence hold for the method and conditions named. Binding seen in cells or lysates may run through a third protein. Some results given as binding are weak or reduced against the parent protein; the word gives no strength.

Chains of the proteins cited; added tags and fusions are not shown.
UniProt P46940: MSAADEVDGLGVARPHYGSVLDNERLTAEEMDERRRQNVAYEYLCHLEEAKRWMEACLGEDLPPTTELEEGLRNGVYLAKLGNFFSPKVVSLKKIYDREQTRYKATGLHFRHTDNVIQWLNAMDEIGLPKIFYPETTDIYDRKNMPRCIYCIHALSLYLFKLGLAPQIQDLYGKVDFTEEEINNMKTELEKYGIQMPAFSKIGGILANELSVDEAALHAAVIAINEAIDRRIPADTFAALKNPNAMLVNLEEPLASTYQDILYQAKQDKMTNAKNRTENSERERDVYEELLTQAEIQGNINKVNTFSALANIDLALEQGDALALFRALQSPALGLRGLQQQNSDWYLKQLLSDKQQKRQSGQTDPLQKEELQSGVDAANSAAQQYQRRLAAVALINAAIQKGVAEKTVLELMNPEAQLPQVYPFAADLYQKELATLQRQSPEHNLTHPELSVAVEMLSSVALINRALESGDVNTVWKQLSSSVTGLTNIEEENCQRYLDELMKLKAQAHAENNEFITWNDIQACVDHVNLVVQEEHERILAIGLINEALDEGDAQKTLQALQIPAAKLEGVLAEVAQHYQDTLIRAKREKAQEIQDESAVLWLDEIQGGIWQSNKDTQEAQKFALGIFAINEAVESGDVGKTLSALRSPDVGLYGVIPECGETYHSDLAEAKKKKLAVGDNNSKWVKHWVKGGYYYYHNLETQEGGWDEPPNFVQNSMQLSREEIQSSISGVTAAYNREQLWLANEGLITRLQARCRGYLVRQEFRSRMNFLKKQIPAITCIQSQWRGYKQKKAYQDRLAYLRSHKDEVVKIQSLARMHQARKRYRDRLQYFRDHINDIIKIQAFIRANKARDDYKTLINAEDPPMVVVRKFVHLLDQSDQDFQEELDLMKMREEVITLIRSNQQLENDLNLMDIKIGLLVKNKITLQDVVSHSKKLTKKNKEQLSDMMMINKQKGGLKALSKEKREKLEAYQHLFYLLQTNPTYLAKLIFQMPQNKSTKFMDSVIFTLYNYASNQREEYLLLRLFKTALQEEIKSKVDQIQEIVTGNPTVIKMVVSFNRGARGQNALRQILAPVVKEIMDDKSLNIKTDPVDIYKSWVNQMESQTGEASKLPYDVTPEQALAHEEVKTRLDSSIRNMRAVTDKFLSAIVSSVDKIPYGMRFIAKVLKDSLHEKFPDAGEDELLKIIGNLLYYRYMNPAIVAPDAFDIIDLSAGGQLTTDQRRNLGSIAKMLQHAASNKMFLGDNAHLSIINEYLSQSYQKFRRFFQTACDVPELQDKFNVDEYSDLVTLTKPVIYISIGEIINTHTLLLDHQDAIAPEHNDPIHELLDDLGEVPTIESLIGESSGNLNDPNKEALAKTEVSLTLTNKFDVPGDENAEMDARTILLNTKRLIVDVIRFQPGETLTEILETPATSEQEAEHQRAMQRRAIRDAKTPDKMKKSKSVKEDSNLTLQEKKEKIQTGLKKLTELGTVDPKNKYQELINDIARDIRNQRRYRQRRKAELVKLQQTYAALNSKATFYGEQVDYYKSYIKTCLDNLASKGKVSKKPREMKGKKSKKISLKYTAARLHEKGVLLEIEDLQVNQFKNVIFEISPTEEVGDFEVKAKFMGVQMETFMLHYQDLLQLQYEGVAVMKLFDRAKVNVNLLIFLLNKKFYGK
UniProt Q16630: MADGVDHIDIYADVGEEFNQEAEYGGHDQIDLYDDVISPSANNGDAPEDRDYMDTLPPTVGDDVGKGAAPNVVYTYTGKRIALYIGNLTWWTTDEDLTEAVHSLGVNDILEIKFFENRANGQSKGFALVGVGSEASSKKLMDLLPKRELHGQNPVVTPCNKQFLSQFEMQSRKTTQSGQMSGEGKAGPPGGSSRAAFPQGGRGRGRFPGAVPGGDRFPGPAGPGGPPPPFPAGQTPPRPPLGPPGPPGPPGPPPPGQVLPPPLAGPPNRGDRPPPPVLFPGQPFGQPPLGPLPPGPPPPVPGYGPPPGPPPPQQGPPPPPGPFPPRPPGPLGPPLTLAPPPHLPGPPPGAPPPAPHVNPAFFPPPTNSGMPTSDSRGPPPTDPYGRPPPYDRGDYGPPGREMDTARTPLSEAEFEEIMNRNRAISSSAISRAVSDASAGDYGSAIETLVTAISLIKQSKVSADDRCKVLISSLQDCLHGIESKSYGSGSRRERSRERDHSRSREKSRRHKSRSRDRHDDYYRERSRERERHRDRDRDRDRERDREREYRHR
UniProt Q07955: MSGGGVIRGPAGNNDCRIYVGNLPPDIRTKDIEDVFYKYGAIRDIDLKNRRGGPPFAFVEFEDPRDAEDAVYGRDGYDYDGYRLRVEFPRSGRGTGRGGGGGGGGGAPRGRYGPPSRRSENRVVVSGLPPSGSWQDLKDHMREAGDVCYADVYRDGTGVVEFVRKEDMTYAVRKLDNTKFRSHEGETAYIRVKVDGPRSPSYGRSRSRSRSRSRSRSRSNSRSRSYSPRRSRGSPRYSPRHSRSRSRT
UniProt Q92841: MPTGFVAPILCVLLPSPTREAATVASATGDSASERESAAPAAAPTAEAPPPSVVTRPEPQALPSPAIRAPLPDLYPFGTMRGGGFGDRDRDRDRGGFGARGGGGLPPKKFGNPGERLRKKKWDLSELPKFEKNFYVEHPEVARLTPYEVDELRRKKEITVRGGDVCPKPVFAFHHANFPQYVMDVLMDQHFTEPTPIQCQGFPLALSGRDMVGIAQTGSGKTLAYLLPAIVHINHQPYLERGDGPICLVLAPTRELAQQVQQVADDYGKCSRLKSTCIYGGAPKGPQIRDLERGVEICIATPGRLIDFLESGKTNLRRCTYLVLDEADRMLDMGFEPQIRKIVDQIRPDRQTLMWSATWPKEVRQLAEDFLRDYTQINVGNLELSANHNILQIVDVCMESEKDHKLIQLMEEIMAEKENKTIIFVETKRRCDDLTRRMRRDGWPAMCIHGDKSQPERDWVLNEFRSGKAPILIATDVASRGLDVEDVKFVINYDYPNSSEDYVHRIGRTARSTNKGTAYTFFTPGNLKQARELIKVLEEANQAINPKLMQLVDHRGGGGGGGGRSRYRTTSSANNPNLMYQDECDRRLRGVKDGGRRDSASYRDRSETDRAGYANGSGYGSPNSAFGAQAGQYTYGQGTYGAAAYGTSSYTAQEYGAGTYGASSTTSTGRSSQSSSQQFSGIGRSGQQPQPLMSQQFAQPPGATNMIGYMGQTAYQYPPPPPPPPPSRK

Test [1] concerns the target IQGAP1 (IQ Motif Containing GTPase Activating Protein 1) (human (endogenous in NUGC4 and MKN45)) (UniProt P46940). Briefly: co-IP.
Test [2] shares this target. Briefly: co-IP. The source holds these as a separate data set.
For test [3] the target is unchanged. The test can be described thus: proximity ligation.
For test [4] the target is unchanged. Briefly: co-IP. This is another data set of the same source.

In the case of CPSF6 (from UniProt Q16630 1-551), the binding entry in test [1] is recorded as “binds”. On the same count and under the same terms, to SRSF1 (from UniProt Q07955 1-248) belongs “binds”; to DDX17 (from UniProt Q92841 1-729), “binds”.

B1: ILF3/NF90 (protein, UniProt Q12906 1-894)
chain: MRPMRIFVNDDRHVMAKHSSVYPTQEELEAVQNMVSHTERALKAVSDWIDEQEKGSSEQAESDNMDVPPEDDSKEGAGEQKTEHMTRTLRGVMRVGLVAKGLLLKGDLDLELVLLCKEKPTTALLDKVADNLAIQLAAVTEDKYEILQSVDDAAIVIKNTKEPPLSLTIHLTSPVVREEMEKVLAGETLSVNDPPDVLDRQKCLAALASLRHAKWFQARANGLKSCVIVIRVLRDLCTRVPTWGPLRGWPLELLCEKSIGTANRPMGAGEALRRVLECLASGIVMPDGSGIYDPCEKEATDAIGHLDRQQREDITQSAQHALRLAAFGQLHKVLGMDPLPSKMPKKPKNENPVDYTVQIPPSTTYAITPMKRPMEEDGEEKSPSKKKKKIQKKEEKAEPPQAMNALMRLNQLKPGLQYKLVSQTGPVHAPIFTMSVEVDGNSFEASGPSKKTAKLHVAVKVLQDMGLPTGAEGRDSSKGEDSAEETEAKPAVVAPAPVVEAVSTPSAAFPSDATAEQGPILTKHGKNPVMELNEKRRGLKYELISETGGSHDKRFVMEVEVDGQKFQGAGSNKKVAKAYAALAALEKLFPDTPLALDANKKKRAPVPVRGGPKFAAKPHNPGFGMGGPMHNEVPPPPNLRGRGRGGSIRGRGRGRGFGGANHGGYMNAGAGYGSYGYGGNSATAGYSQFYSNGGHSGNASGGGGGGGGGSSGYGSYYQGDNYNSPVPPKHAGKKQPHGGQQKPSYGSGYQSHQGQQQSYNQSPYSNYGPPQGKQKGYNHGQGSYSYSNSYNSPGGGGGSDYNYESKFNYSGSGGRSGGNSYGSGGASYNPGSHGGYGGGSGGGSSYQGKQGGYSQSNYNSPGSGQNYSGPPSSYQSSQGGYGRNADHSMNYQYR
For B1, the binding result in test [1] was “binds”.

B2: heterogeneous nuclear ribonucleoprotein M (hnRNPM) (protein, UniProt P52272 1-730)
chain: MAAGVEAAAEVAATEIKMEEESGAPGVPSGNGAPGPKGEGERPAQNEKRKEKNIKRGGNRFEPYANPTKRYRAFITNIPFDVKWQSLKDLVKEKVGEVTYVELLMDAEGKSRGCAVVEFKMEESMKKAAEVLNKHSLSGRPLKVKEDPDGEHARRAMQKVMATTGGMGMGPGGPGMITIPPSILNNPNIPNEIIHALQAGRLGSTVFVANLDYKVGWKKLKEVFSMAGVVVRADILEDKDGKSRGIGTVTFEQSIEAVQAISMFNGQLLFDRPMHVKMDERALPKGDFFPPERPQQLPHGLGGIGMGLGPGGQPIDANHLNKGIGMGNIGPAGMGMEGIGFGINKMGGMEGPFGGGMENMGRFGSGMNMGRINEILSNALKRGEIIAKQGGGGGGGSVPGIERMGPGIDRLGGAGMERMGAGLGHGMDRVGSEIERMGLVMDRMGSVERMGSGIERMGPLGLDHMASSIERMGQTMERIGSGVERMGAGMGFGLERMAAPIDRVGQTIERMGSGVERMGPAIERMGLSMERMVPAGMGAGLERMGPVMDRMATGLERMGANNLERMGLERMGANSLERMGLERMGANSLERMGPAMGPALGAGIERMGLAMGGGGGASFDRAIEMERGNFGGSFAGSFGGAGGHAPGVARKACQIFVRNLPFDFTWKMLKDKFNECGHVLYADIKMENGKSKGCGVVKFESPEVAERACRMMNGMKLSGREIDVRIDRNA
On to B2, for which the binding entry in test [1], in test [2], in test [3] and in test [4] was “binds” each time.

B3: hnRNPL (protein, UniProt P14866 1-589)
chain: MSRRLLPRAEKRRRRLEQRQQPDEQRRRSGAMVKMAAAGGGGGGGRYYGGGSEGGRAPKRLKTDNAGDQHGGGGGGGGGAGAAGGGGGGENYDDPHKTPASPVVHIRGLIDGVVEADLVEALQEFGPISYVVVMPKKRQALVEFEDVLGACNAVNYAADNQIYIAGHPAFVNYSTSQKISRPGDSDDSRSVNSVLLFTILNPIYSITTDVLYTICNPCGPVQRIVIFRKNGVQAMVEFDSVQSAQRAKASLNGADIYSGCCTLKIEYAKPTRLNVFKNDQDTWDYTNPNLSGQGDPGSNPNKRQRQPPLLGDHPAEYGGPHGGYHSHYHDEGYGPPPPHYEGRRMGPPVGGHRRGPSRYGPQYGHPPPPPPPPEYGPHADSPVLMVYGLDQSKMNCDRVFNVFCLYGNVEKVKFMKSKPGAAMVEMADGYAVDRAITHLNNNFMFGQKLNVCVSKQPAIMPGQSYGLEDGSCSYKDFSESRNNRFSTPEQAAKNRIQHPSNVLHFFNAPLEVTEENFFEICDELGVKRPSSVKVFSGKSERSSSGLLEWESKSDALETLGFLNHYQMKNPNGPYPYTLKLCFSTAQHAS
For the molecule B3, the binding result in test [1] and in test [4] was “binds” each time.

Values taken from paper doi:10.1101/2020.05.11.089656.
